PubChem BioAssay AID504744, Drosophila RNAi Screening Center, 2011
In all, the deposit lists about 23,000 reagents; shown is an unselected part of those with a known target gene and a result. Over the whole deposit, 98 (0.43%) were called active. 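Only hit calls are given; the phospho-dAkt signals, z-scores and hit direction were not deposited.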 No sequences are given here.

Assay: 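Identify dsRNAs that increase or decrease phospho-dAkt after insulin treatment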 (primary screen)
Cells: Drosophila Kc167 cells
Knock-down reagent: long dsRNA against Drosophila genes, 250 ng dsRNA per well of a 384-well plate
Time to read-out: 3 days of knock-down, then overnight serum-free starvation before stimulation
Challenge: bovine insulin at 387 nM for 10 minutes after 12 h without serum
Measured: 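In-cell antibody fluorescence for phospho-dAkt in each well over DNA-dye signal, with log2 residuals expressed as z-scores adjusted for cell count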
Active means: 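Hit in the insulin screen when the two-replicate mean z-score is more extreme than plus or minus 2.5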

Against CG15169 [DRSC02470], the values are inactive.
Nop56 [DRSC14699] showed inactive.
CG8543 [DRSC10990] scored inactive.
CG8543 [DRSC22809] gave inactive.
Depletion of CG14743 [DRSC06479] came out at: inactive.
Silencing of beat-IIb [DRSC13219] came out at: inactive.
Depletion of beat-IIb [DRSC14816] came out at: inactive.
After knock-down of beat-IIb [DRSC15546] the results were inactive.
Xpc [DRSC07654] gave inactive.
Against CG7512 [DRSC10863] the deposit lists inactive.
Rad23 [DRSC17167] scored inactive.
Silencing of CG30423 [DRSC04013] came out at: inactive.
After knock-down of ND-49 [DRSC17151], the screen gave inactive.
Silencing of CG9624 [DRSC16523] resulted in: inactive.
HDAC6 [DRSC20252] scored inactive.
Psa [DRSC08152] gave inactive.
For tacc [DRSC12019], the values are inactive.
Knock-down of tacc [DRSC12388] gave: inactive.
For CG34323 [DRSC18916], the entry reads inactive.
For SerT [DRSC04655] the deposit lists inactive.
For Top3alpha [DRSC03460], the entry reads inactive.
After knock-down of mthl10 [DRSC08504] the results were inactive.
After knock-down of mthl10 [DRSC08505], the record shows inactive.
With knock-down of MED25 [DRSC14483], the screen gave inactive.
For Hesr [DRSC19965] the deposit lists inactive.
Knock-down of CG5854 [DRSC15894] gave: inactive.
For Zpr1 [DRSC18432], the values are inactive.
After knock-down of Vps51 [DRSC06519], the screen gave inactive.
Knock-down of Gen [DRSC09679] came out at: inactive.
After knock-down of CG11668 [DRSC14341], the screen gave inactive.
CG34296 [DRSC13961] showed inactive.
Against PNUTS [DRSC00638] the deposit lists inactive.
With knock-down of PNUTS [DRSC22136], the record shows inactive.
CG32856 [DRSC13124] scored inactive.
Against CG12643 [DRSC17849], the values are inactive.
Silencing of zfh1 [DRSC14014] gave: inactive.
With knock-down of zfh1 [DRSC17098], the screen gave inactive.
After knock-down of CG6337 [DRSC06977], the record shows inactive.
After knock-down of CG6337 [DRSC21870], the record shows inactive.
CG34032 (retired record) [DRSC09225] gave inactive.
Lcp1 [DRSC07455] gave inactive.
Tango11 [DRSC03890] gave inactive.
Silencing of Tango11 [DRSC03892] resulted in: inactive.
CG9008 [DRSC01889] gave inactive.
For Trmt6 [DRSC03272] the deposit lists inactive.
CG32813 [DRSC17948] gave inactive.
Against Cpr30F [DRSC02908], the entry reads inactive.
For Acf [DRSC14101], the entry reads inactive.
Against CG8170 [DRSC07087], the entry reads inactive.
For CG30159 [DRSC04981] the deposit lists inactive.
Silencing of dah [DRSC20320] gave: inactive.
After knock-down of THADA [DRSC19675] the results were inactive.
Knock-down of Gnpat [DRSC16960] resulted in: inactive.
Silencing of Lrpprc2 [DRSC18605] gave: inactive.
Depletion of TpnC41C [DRSC04916] came out at: inactive.
Against CG31924 [DRSC00689] the deposit lists inactive.
Depletion of JMJD5 [DRSC08372] came out at: inactive.
Knock-down of lectin-37Da [DRSC03278] came out at: inactive.
Against lectin-37Da [DRSC22729], the entry reads inactive.
With knock-down of CG14160 [DRSC10161] the results were inactive.
After knock-down of Adgf-D [DRSC16521], the screen gave inactive.
For betaNACtes4 [DRSC19801], the entry reads inactive.
CG13321 [DRSC06358] scored inactive.
Cpr47Ea [DRSC07333] showed inactive.
Against krz [DRSC16979] the deposit lists inactive.
After knock-down of Ype [DRSC20301], the record shows inactive.
For CG8952 [DRSC20133], the entry reads inactive.
Against Eato [DRSC01891], the values are inactive.
Eato [DRSC03061] gave inactive.
After knock-down of H15 [DRSC03339] the results were inactive.
Silencing of H15 [DRSC22199] came out at: inactive.
For CG31639 [DRSC00910], the values are inactive.
Against mRpL37 [DRSC16062], the entry reads inactive.
